# Source: PubChem BioAssay AID2685 (National Center for Advancing Translational Sciences (NCATS), 2010)
# This is one part of the list. Shown are side measurements of this screen, not its main read-out; they come without a call. Compounds called inactive in the main read-out are mostly missing here. The note in brackets gives the kind of curve behind each potency; many fits are weak.
# Test: qHTS Assay for Lipid Storage Modulators in Drosophila S3 Cells;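 on cell number change: cells counted by Cell Tracker Red CMTPX staining in the red channel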
# Conditions: BODIPY lipid droplet fluorescence, 18-24 h; for cell number change: measured here: cell count max response, cells fed with added oleic acid
# In short: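 Drosophila S3 cells got compounds at several concentrations plus oleic acid (400 uM solution). Laser-scanning cytometry with 488 nm excitation read lipid droplets at 500-530 nm and cells at 575-640 nm. Percent activity was relative to 20 uM Triacsin C.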
# [1] = measured here: lipid fluorescence (Fed channel) AC50, cells fed with added oleic acid
# [2] = measured here: cell number channel AC50, cells fed with added oleic acid
SMILES,AC50 [1],cell number change [%],AC50 [2]
O=C(NCc1ccc2c(c1)OCO2)c1ccc(CS(=O)Cc2cccc(Cl)c2)o1 (stereo not given),"6.51 µM [rising, single point]",–,–
Cc1cccc(NC(=O)CSc2nc(=O)n(CCCN3CCOCC3)c3c2CCCC3)c1,"8.2 µM [rising, partial curve, poor fit]",34.4,"9.2 µM [rising, single point]"
CCN(CC)S(=O)(=O)c1ccc(N2CCN(C)CC2)c(NC(=O)COc2ccc(F)cc2Cl)c1,–,–,"4.11 µM [rising, partial curve, poor fit]"
Nc1nc2ccccc2n1C(=O)CCc1ccccc1,–,170,"32.6 µM [rising, partial curve]"
CCN(c1ccc(OC)cc1)S(=O)(=O)c1cc(-c2cc(C)no2)ccc1C(C)C,"29.1 µM [rising, single point]",32.5,"29.1 µM [rising, single point]"
CCn1c(SCC(=O)Nc2ccc(C)cc2)nnc1-c1ccccn1,"18.4 µM [falling, single point]",6.17,–
O=C(CCC(=O)NCCCc1ccccc1)NCCCc1ccccc1,"11.6 µM [falling, partial curve]",-1.81,–
O=C(/C=C/c1ccc(O)c([N+](=O)[O-])c1)c1ccc2ccccc2c1,–,-11.8,–
COc1ccc(C)cc1NC(=O)C(=O)N/N=C(\C)CC(=O)Nc1cccnc1,"3.26 µM [rising, partial curve]",26.4,–
O=C(OCc1nc2ccccc2s1)c1ccccc1O,"0.731 µM [falling, full curve, poor fit]",2.81,"0.731 µM [falling, full curve, poor fit]"
Nn1c(Nc2ccccc2)nc2ccccc2c1=O,"20.6 µM [falling, single point]",-26.2,–
CCC(C)(C)n1nnnc1C(CC(C)C)N1CCC(C(N)=O)CC1 (stereo not given),–,-27.8,"0.651 µM [falling, full curve, poor fit]"
COc1cccc2cc(C(N)=O)oc12,"35.5 µM [rising, single point]",45.2,"20 µM [rising, partial curve, poor fit]"
Cc1ccc(NC(=O)c2ccc(=O)[nH]n2)cc1S(=O)(=O)Nc1ccccc1Cl,"0.103 µM [rising, full curve, poor fit]",–,–
O=C(NC1CCCCCCC1)c1ccc(S(=O)(=O)N2CCCC2)cc1,–,8.79,–
Cc1[nH]nc2c1C(c1cccnc1)N(c1ccc(Br)cc1)C2=O (stereo not given),"32.6 µM [falling, partial curve, poor fit]",-32.9,–
CC(C)(CN1CCN(Cc2ccccc2)CC1)NS(=O)(=O)c1ccccc1,"0.103 µM [falling, full curve, poor fit]",-1.07,–
COc1c(OC(C)=O)ccc(/C=C/c2ccc3cccc(OCc4ccccc4)c3n2)c1[N+](=O)[O-],"23.1 µM [falling, single point]",-23.3,–
CCN1C(=O)/C(=C2/C=Cc3ccccc3N2C)OC1=S,–,2.69,–
CCS(=O)(=O)c1ccc(C(=O)NC2CC2)c(Cl)c1Cl,"0.00461 µM [rising, full curve, poor fit]",19.5,–

# 3 compounds from above, arranged by formula weight, largest number first.
SMILES,AC50 [1],cell number change [%],AC50 [2]
Cc1cccc(NC(=O)CSc2nc(=O)n(CCCN3CCOCC3)c3c2CCCC3)c1,"8.2 µM [rising, partial curve, poor fit]",34.4,"9.2 µM [rising, single point]"
CCn1c(SCC(=O)Nc2ccc(C)cc2)nnc1-c1ccccn1,"18.4 µM [falling, single point]",6.17,–
CCN1C(=O)/C(=C2/C=Cc3ccccc3N2C)OC1=S,–,2.69,–

# Next part

SMILES,AC50 [1],cell number change [%],AC50 [2]
Cc1[nH][nH]c(=O)c1C(c1ccc2c(c1)OCO2)c1c(C)[nH][nH]c1=O,"0.146 µM [falling, full curve, poor fit]",–,–
CCOC(=O)c1c(C)c(C#N)c2c3ccccc3ccn12,–,19.7,–
O=C(CSc1nnc2ccc(-c3ccccn3)nn12)Nc1ccc(F)cc1F,–,4,–
CC(=O)NCCC(=O)N1CCc2c([nH]c3ccccc23)C1c1cccc(Cl)c1 (stereo not given),–,-15.8,–
Cc1ccc(S(=O)(=O)N2CCN(C(=O)COC(=O)CCCOc3ccccc3)CC2)c(C)c1,"1.84 µM [falling, partial curve]",4.04,"6.51 µM [falling, single point]"
COC(=O)c1cn(NC(=O)c2ccc([N+](=O)[O-])c(C)c2)c(=O)c2ccccc12,–,4.34,–
COc1ccc(N(C)S(=O)(=O)c2ccc(Cl)c(C(=O)NNC(=O)c3ccccc3O)c2)cc1,"0.146 µM [falling, full curve, poor fit]",-15.5,–
Cc1ccc(-c2noc(CNS(=O)(=O)c3ccccc3)n2)cc1,"8.2 µM [rising, partial curve, poor fit]",13.2,–
Cc1ccc(N2CC(C(=O)N3CCN(C(=O)c4ccco4)CC3)CC2=O)cc1 (stereo not given),–,–,"6.51 µM [falling, single point]"
O=C(c1ccc(Cl)c(S(=O)(=O)N2CCCC2)c1)N1CCN(c2ccc(F)cc2)CC1,"29.1 µM [rising, partial curve]",–,–
CCN1CCN(CC(O)COCc2ccccc2)CC1 (stereo not given),"32.6 µM [falling, single point]",-20.5,–
O=C1CC(c2cccc(O)c2)Oc2ccccc21 (stereo not given),"9.2 µM [rising, partial curve, poor fit]",7.78,–
Cc1ccc(N(CC(=O)Nc2ccccc2C(=O)NCc2ccco2)S(=O)(=O)c2ccccc2)cc1C,"29.1 µM [rising, single point]",26.9,–
CCOC(=O)c1c(C)[nH]c(C(=O)OCC(=O)NC(C)C)c1C,"4.11 µM [rising, partial curve]",43.3,"3.26 µM [rising, full curve]"
CCC(=O)Nc1nnc(S(=O)(=O)N(CC(C)C)c2ccccc2)s1,–,20.2,–
c1ccn(-c2ccc(N3CCOCC3)cc2)c1,"0.517 µM [rising, single point]",-5.06,–
Cc1cc(=O)oc2c(C)c(OC(C)C(=O)NCc3ccccn3)ccc12 (stereo not given),"18.4 µM [falling, partial curve, poor fit]",-40,"11.6 µM [falling, partial curve, poor fit]"
CCOc1ccc(C(=O)N2CCc3ccccc32)cc1OCC,–,11.6,–
CCN1CCN(c2ccc(S(=O)(=O)N3CCCCC3)cc2NC(=O)c2ccc([N+](=O)[O-])o2)CC1,"0.259 µM [rising, partial curve, poor fit]",–,"0.731 µM [rising, full curve, poor fit]"
